# PMC6660512
# The chains behind the UniProt entries cited, without tags or fusion partners.
# UniProt P52592: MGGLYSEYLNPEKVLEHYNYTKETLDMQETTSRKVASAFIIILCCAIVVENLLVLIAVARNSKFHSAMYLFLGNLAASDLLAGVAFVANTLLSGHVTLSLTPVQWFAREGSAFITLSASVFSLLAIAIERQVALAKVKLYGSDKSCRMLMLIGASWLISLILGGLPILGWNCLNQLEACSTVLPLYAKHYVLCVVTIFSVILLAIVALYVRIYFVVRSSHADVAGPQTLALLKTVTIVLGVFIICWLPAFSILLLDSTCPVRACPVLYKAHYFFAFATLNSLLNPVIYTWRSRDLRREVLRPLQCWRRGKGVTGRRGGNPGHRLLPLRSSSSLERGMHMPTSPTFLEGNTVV
# No constants are given. Whether binding was seen depends on the method and setting. In cells and extracts the contact can be indirect. Some results given as binding are weak or reduced against the parent protein; the word gives no strength.
# B1: SPARC produced by xenografted LN308 glioblastoma cells (protein, UniProt P09486 18-303)
# chain: APQQEALPDETEVVEETVAEVTEVSVGANPVQVEVGEFDDGAEETEEEVVAENPCQNHHCKHGKVCELDENNTPMCVCQDPTSCPAPIGEFEKVCSNDNKTFDSSCHFFATKCTLEGTKKGHKLHLDYIGPCKYIPPCLDSELTEFPLRMRDWLKNVLVTLYERDEDNNLLTEKQKLRVKKIHENEKRLEAGDHPVELLARDFEKNYNMYIFPVHWQFGQLDQHPIDGYLSHTELAPLRAPLIPMEHCTTRFFETCDLDNDKYIALDEWAGCFGIKQKDIDKDLVI
# B2: Nogo-A (endogenous, mouse brain) (protein, UniProt Q99P72-2 1-1162)
# chain: MEDIDQSSLVSSSADSPPRPPPAFKYQFVTEPEDEEDEEDEEEEEDDEDLEELEVLERKPAAGLSAAPVPPAAAPLLDFSSDSVPPAPRGPLPAAPPTAPERQPSWERSPAASAPSLPPAAAVLPSKLPEDDEPPARPPAPAGASPLAEPAAPPSTPAAPKRRGSGSVDETLFALPAASEPVIPSSAEKIMDLKEQPGNTVSSGQEDFPSVLFETAASLPSLSPLSTVSFKEHGYLGNLSAVASTEGTIEETLNEASRELPERATNPFVNRESAEFSVLEYSEMGSSFNGSPKGESAMLVENTKEEVIVRSKDKEDLVCSAALHNPQESPATLTKVVKEDGVMSPEKTMDIFNEMKMSVVAPVREEYADFKPFEQAWEVKDTYEGSRDVLAARANMESKVDKKCFEDSLEQKGHGKDSESRNENASFPRTPELVKDGSRAYITCDSFSSATESTAANIFPVLEDHTSENKTDEKKIEERKAQIITEKTSPKTSNPFLVAIHDSEADYVTTDNLSKVTEAVVATMPEGLTPDLVQEACESELNEATGTKIAYETKVDLVQTSEAIQESIYPTAQLCPSFEEAEATPSPVLPDIVMEAPLNSLLPSTGASVAQPSASPLEVPSPVSYDGIKLEPENPPPYEEAMSVALKTSDSKEEIKEPESFNAAAQEAEAPYISIACDLIKETKLSTEPSPEFSNYSEIAKFEKSVPDHCELVDDSSPESEPVDLFSDDSIPEVPQTQEEAVMLMKESLTEVSETVTQHKHKERLSASPQEVGKPYLESFQPNLHITKDAASNEIPTLTKKETISLQMEEFNTAIYSNDDLLSSKEDKMKESETFSDSSPIEIIDEFPTFVSAKDDSPKEYTDLEVSNKSEIANVQSGANSLPCSELPCDLSFKNTYPKDEAHVSDEFSKSRSSVSKVPLLLPNVSALESQIEMGNIVKPKVLTKEAEEKLPSDTEKEDRSLTAVLSAELNKTSVVDLLYWRDIKKTGVVFGASLFLLLSLTVFSIVSVTAYIALALLSVTISFRIYKGVIQAIQKSDEGHPFRAYLESEVAISEELVQKYSNSALGHVNSTIKELRRLFLVDDLVDSLKFAVLMWVFTYVGALFNGLTLLILALISLFSIPVIYERHQAQIDHYLGLANKSVKDAMAKIQAKIPGLKRKAE
# Assays:
# [1] = target: T1, TrxA-SPARC (UniProt P09486); assay: pull-down; IMAC using TrxA-SPARC with human brain and liver lysates (Fig. 2e); brain lysates of wild-type and Nogo-A KO mice (Suppl. Figure 3a, set-up not shown); only the target purified
# T1 sequence: B1 chain
# [2] = target: T2, Nogo-A (endogenous, mouse brain) (mouse (endogenous in mouse brain)) (UniProt Q99P72); assay: co-IP; co-precipitation of Nogo-A with S1PR2 and with SPARC lacking the Kazal-like module (Suppl. Figure 4n); set-up not shown
# T2 sequence: B2 chain
# [3] = target: T2, Nogo-A (endogenous, mouse brain) (mouse (endogenous in mouse brain)); assay: co-IP; co-IP of Nogo-A, S1PR2 and SPARC from brain lysates of mice xenografted without glioblastoma cells (nx) or with LN308 cells expressing shCTR or shSPARC (Fig. 2i)
Molecule,binding [1],binding [2],binding [3]
"Nogo-A (endogenous, human brain) (from UniProt Q9NQC3-1 1-1192)",binds,–,–
"sphingosine 1-phosphate receptor 2 (S1PR2), in brain lysates (from UniProt P52592 1-352)",–,binds,binds
B1,–,–,binds
B2,binds,–,–
